Reference: paper PMC11408687
Changes are numbered by the printed parent chain. No constants are given. Whether binding was seen depends on the method and setting. For part of these data: In cells and extracts the contact can be indirect. Some entries that bind do so weakly or less than the wild type. For part of these data: Sequences can lack the tags named with a protein.

Chains of the proteins cited; added tags and fusions are not shown. Lines headed by an entry give the natural chain unless they say otherwise; changes in a name come on top. Residues count along the entry.
UniProt Q91VN0, residues 31-1614: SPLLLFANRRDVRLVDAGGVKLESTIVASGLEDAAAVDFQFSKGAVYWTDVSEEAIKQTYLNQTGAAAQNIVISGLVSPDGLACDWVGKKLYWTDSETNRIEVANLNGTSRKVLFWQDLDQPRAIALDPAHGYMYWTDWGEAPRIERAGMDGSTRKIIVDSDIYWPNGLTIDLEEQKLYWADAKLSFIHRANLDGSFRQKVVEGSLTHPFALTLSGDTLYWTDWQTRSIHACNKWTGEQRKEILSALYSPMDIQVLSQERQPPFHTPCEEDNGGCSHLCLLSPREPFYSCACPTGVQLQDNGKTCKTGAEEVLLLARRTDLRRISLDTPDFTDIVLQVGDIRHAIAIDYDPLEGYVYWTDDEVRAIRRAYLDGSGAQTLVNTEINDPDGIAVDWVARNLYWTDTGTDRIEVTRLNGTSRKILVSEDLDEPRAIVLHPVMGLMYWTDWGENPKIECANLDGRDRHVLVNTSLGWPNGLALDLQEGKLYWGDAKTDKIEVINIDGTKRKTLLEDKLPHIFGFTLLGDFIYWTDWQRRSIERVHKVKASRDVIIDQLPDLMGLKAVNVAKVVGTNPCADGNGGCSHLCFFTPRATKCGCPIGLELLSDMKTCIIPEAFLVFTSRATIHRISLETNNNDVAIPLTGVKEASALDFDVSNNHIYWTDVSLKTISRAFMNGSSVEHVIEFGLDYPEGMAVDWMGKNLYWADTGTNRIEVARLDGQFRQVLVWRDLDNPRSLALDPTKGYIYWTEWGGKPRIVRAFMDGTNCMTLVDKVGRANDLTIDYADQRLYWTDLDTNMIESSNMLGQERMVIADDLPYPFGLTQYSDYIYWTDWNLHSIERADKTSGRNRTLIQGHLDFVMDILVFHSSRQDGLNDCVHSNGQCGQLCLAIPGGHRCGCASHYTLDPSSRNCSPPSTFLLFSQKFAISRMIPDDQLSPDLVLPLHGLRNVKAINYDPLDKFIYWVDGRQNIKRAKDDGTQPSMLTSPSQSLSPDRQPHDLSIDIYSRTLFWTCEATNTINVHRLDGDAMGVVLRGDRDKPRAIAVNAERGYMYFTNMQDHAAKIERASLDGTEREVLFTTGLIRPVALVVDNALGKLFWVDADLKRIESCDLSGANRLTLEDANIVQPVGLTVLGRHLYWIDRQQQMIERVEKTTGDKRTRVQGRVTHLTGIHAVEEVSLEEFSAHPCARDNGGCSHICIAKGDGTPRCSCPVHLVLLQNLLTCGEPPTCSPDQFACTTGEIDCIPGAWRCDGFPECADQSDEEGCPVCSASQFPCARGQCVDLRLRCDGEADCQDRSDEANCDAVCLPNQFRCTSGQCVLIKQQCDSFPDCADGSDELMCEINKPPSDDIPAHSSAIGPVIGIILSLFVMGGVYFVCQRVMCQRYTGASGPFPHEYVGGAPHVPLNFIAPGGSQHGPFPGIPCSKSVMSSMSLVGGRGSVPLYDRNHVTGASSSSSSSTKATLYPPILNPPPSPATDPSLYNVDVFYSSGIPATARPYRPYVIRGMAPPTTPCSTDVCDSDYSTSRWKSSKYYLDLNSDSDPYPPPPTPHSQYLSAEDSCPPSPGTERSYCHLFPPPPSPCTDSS
UniProt Q02248: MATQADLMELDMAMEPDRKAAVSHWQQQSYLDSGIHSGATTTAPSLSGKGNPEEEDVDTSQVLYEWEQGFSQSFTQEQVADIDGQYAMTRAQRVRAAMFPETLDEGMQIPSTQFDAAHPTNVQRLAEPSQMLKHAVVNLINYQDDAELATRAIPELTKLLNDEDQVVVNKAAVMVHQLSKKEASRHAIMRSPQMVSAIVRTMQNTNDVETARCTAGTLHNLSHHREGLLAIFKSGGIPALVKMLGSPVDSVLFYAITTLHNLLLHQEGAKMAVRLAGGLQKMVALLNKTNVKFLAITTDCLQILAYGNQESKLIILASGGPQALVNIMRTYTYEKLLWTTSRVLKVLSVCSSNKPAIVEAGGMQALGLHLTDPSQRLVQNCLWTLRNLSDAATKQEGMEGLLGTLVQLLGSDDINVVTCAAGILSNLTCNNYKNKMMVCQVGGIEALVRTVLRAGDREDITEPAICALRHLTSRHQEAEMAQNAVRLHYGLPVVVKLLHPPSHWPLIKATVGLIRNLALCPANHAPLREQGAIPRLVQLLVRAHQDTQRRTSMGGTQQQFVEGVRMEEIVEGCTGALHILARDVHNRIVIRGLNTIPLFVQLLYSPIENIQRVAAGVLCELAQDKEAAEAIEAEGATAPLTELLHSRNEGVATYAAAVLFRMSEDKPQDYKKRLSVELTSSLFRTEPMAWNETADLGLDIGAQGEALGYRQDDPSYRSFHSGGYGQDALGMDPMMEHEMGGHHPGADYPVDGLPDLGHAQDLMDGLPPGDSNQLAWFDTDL
UniProt O75197: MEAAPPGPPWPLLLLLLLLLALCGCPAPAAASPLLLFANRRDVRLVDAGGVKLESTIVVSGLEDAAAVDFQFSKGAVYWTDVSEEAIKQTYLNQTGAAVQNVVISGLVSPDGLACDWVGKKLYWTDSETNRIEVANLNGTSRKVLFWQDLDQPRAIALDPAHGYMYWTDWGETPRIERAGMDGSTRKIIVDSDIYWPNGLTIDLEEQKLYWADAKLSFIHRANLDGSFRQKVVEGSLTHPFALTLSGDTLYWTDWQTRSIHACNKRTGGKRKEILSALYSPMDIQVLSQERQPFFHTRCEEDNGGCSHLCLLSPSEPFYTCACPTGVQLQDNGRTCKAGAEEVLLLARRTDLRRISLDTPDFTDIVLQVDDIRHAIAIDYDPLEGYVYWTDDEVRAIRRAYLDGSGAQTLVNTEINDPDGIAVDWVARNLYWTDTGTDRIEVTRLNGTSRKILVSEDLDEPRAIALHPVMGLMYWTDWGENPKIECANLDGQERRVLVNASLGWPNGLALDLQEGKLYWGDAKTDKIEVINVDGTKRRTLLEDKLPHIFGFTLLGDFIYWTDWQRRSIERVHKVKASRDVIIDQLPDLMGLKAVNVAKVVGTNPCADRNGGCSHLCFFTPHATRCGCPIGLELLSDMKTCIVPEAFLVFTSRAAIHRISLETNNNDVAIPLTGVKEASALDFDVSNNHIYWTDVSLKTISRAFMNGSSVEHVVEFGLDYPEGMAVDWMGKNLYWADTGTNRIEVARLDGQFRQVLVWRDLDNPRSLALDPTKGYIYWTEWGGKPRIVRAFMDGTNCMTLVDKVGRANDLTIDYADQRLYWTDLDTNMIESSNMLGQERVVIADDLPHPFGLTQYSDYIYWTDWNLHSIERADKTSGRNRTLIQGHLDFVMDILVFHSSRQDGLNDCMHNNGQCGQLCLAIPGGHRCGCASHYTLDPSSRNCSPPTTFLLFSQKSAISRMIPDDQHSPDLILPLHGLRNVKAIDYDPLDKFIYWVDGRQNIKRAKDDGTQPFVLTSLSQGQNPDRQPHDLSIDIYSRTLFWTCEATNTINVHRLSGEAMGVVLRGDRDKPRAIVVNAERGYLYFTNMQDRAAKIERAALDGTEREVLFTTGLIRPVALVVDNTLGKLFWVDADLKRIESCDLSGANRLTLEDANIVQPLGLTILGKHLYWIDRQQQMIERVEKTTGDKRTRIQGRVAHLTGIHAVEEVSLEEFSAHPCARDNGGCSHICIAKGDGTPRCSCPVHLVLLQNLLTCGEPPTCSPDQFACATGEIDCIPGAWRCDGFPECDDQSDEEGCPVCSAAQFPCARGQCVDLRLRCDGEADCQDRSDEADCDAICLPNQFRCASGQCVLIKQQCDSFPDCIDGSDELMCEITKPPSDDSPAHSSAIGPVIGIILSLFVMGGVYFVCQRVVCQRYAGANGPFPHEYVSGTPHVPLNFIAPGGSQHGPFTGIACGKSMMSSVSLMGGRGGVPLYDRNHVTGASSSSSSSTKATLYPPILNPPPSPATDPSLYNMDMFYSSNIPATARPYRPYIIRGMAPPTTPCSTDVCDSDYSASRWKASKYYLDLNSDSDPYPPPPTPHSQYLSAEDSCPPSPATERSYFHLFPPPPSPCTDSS
UniProt P35222: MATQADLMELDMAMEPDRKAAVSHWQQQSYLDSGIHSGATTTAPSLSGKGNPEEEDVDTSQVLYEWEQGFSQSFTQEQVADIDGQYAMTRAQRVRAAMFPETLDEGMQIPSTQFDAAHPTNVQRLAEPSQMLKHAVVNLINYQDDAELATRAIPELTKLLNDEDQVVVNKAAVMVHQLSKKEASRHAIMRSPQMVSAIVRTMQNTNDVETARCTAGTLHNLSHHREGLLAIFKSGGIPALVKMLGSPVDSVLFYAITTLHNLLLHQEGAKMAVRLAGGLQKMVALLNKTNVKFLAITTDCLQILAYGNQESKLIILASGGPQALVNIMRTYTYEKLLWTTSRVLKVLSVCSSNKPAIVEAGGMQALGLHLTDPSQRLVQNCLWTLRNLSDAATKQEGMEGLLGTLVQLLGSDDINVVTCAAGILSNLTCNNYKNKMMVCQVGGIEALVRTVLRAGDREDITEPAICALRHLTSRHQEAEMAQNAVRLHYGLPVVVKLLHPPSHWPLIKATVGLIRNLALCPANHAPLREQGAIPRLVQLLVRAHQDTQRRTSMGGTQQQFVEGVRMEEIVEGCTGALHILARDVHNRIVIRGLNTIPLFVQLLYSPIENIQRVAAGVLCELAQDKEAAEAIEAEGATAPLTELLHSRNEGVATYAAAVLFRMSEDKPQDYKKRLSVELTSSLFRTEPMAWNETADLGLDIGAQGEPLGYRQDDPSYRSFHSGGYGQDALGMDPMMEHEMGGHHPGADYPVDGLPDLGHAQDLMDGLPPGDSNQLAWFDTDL

What was measured:
[1] = target: T1, Mesencephalic astrocyte-derived neurotrophic factor (MANF), endogenous in mouse liver (mouse (endogenous in liver tissue)) (UniProt Q9CXI5); experiment: co-IP; mouse liver tissue after 2/3 PH homogenised in IP lysis buffer; antibody on protein A/G agarose beads, overnight at 4 °C; isotype IgG as negative control; immunoblotting
T1 sequence: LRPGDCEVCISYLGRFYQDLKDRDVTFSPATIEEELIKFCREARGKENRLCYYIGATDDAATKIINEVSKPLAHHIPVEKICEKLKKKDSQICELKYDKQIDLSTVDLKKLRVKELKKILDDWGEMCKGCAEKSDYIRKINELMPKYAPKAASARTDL

GST-MANF fusion protein = target: T2, GST-MANF fusion protein (UniProt P55145); experiment: pull-down; GST-tag fusion protein immobilised on glutathione Sepharose beads, purified His-tag protein added, 4 °C; GST as negative control; Coomassie staining and immunoblotting; both purified
T2 sequence: T1 sequence with E34N, M126T

[2] = target: Low-density lipoprotein receptor-related protein 5 (LRP5), endogenous in mouse liver (mouse (endogenous in liver tissue)) (UniProt Q91VN0); experiment: co-IP; mouse liver tissue after 2/3 PH homogenised in IP lysis buffer; antibody on protein A/G agarose beads, overnight at 4 °C; isotype IgG as negative control; immunoblotting
[3] = target: β-catenin, endogenous in mouse liver (mouse (endogenous in liver tissue)) (UniProt Q02248); experiment: as above
[4] = target: GST-LRP5-N fusion protein (extracellular domain of LRP5) (UniProt O75197); experiment: pull-down; GST-tag fusion protein immobilised on glutathione Sepharose beads, purified His-tag protein added, 4 °C; GST as negative control; Coomassie staining and immunoblotting; both purified

Q: How did the binding [1] turn out when “β-catenin, endogenous in mouse liver (from UniProt Q02248 1-781)” was run?
A: The binding was “binds”.

Q: Which binding (GST-MANF fusion protein) does the source give for “His-β-catenin fusion protein (from UniProt P35222 1-781)” here?
A: Its binding is “binds”.

Q: For “His-LRP5-N fusion protein (extracellular domain of LRP5) (from UniProt O75197 32-1384) (domain or fragment)”, which binding (GST-MANF fusion protein) is on record?
A: Its binding is “binds”.

B1: Mesencephalic astrocyte-derived neurotrophic factor (MANF), endogenous in mouse liver (protein, UniProt Q9CXI5 22-179)
chain: T1 sequence
Q: Which results are given for B1?
A: binding [2]: binds; binding [3]: binds

B2: His-MANF fusion protein (protein, UniProt P55145 25-182)
chain: T1 sequence with E34N, M126T
Q: How did the binding [4] turn out when B2 was run?
A: Its binding is “binds”.
